Laboratory results as given in patent publication US5807985A, “Oligopeptide compounds containing D-2-alkyltryptophan capable of promoting the release of growth hormone” (priority 1997, dated 1998).
“Also recorded” adds a separate entry of the source. Where two headings read alike, the source gives them in different places. Part of at least one peptide drawing is inferred or uncertain, most often the ends. Square brackets hold non-standard residues; d marks the D form. Peptide text beside a SMILES is read from it. dTrp(2-Me) = Cc1[nH]c2ccccc2c1C[C@@H](N)C(=O)O; d2Nal = N[C@H](Cc1ccc2ccccc2c1)C(=O)O; GABA = NCCCC(=O)O

How the values were obtained:
[1] = system: Human heart tissue; experiment: Inhibition of 125I-Tyr-Ala-HEXARELIN binding to human heart tissue membranes; conditions: for percent of inhibition of 125I-Tyr-Ala-HEXARELIN specifically bound / specific binding of 125I-Tyr-Ala-HEXARELIN/0.1 mg membrane protein: heart
Experimental: (§1) The peptides of Examples 3 and 6 were further studied for inhibition of ^125 I--Tyr--Ala--HEXARELIN binding to human tissue. HEXARELIN is His--D--Mrp--Ala--Trp--D--Phe--Lys--NH2 where Mrp is 2-methyltryptophan.
(§2) Tissue membranes (0.1 mg protein) obtained from the heart and hypothalamus of two different adult subjects were incubated in triplicate with a subsaturating concentration (34 pM, about 48,000 cpm, for heart tissue and 42 pM, about 60,000 cpm, for hypothalamus tissue) of ^125 I--Tyr--Ala--HEXARELIN for 40 min at 0° C. in the absence and in the presence of increasing concentrations of the indicated unlabelled peptides. The value in parentheses represents the percent of inhibition of ^125 1I--Tyr--Ala--HEXARELIN specifically bound.
(§3) The specific binding of ^125 I--Tyr--Ala--HEXARELIN/0.1 mg membrane protein is expressed as a percent of total radioactivity added.

[2] = molecular target: Human hypothalamus tissue; experiment: Inhibition of 125I-Tyr-Ala-HEXARELIN binding to human hypothalamus tissue membranes; conditions: for percent of inhibition of 125I-Tyr-Ala-HEXARELIN specifically bound / specific binding of 125I-Tyr-Ala-HEXARELIN/0.1 mg membrane protein: hypothalamus
Experimental: as §1, §2, §3

[3] = human hypothalamus tissue, mean of subjects 1 and 2, read-out: mean IC50 value
[4] = human hypothalamus tissue, subject 1, read-out: IC50 value
[5] = human hypothalamus tissue, subject 2, read-out: IC50 value

For `Cc1[nH]c2ccccc2c1C[C@@H](NC(=O)CCCN)C(=O)N[C@H](Cc1ccc2ccccc2c1)C(=O)N[C@@H](Cc1ccccc1)C(=O)N[C@@H](CCCCN)C(N)=O` [Example 6, GAB--D--Mrp--D-βNal--Phe--Lys--NH2] (H-[GABA][dTrp(2-Me)][d2Nal]FK-NH2), the “percent of inhibition of 125I-Tyr-Ala-HEXARELIN specifically bound” value ([1]; 0.1 nM peptide, subject 1) was 1%, the “specific binding of 125I-Tyr-Ala-HEXARELIN/0.1 mg membrane protein” value (“specific binding” for short) ([1]; 0.1 nM peptide, subject 1) was 20.1% of total radioactivity and the “percent of inhibition of 125I-Tyr-Ala-HEXARELIN specifically bound” value ([1]; 0.1 nM peptide, subject 2) was 1%. The “specific binding” value ([1]; 0.1 nM peptide, subject 2) was 23.8% of total radioactivity, the “percent of inhibition of 125I-Tyr-Ala-HEXARELIN specifically bound” value ([1]; 1 nM peptide, subject 1) was 3% and the “specific binding” value ([1]; 1 nM peptide, subject 1) was 19.8% of total radioactivity. The “percent of inhibition of 125I-Tyr-Ala-HEXARELIN specifically bound” value ([1]; 1 nM peptide, subject 2) was 2%, the “specific binding” value ([1]; 1 nM peptide, subject 2) was 23.5% of total radioactivity and the “percent of inhibition of 125I-Tyr-Ala-HEXARELIN specifically bound” value ([1]; 10 nM peptide, subject 1) was 19%. The “specific binding” value ([1]; 10 nM peptide, subject 1) was 16.5% of total radioactivity, the “percent of inhibition of 125I-Tyr-Ala-HEXARELIN specifically bound” value ([1]; 10 nM peptide, subject 2) was 20% and the “specific binding” value ([1]; 10 nM peptide, subject 2) was 19.2% of total radioactivity. The “percent of inhibition of 125I-Tyr-Ala-HEXARELIN specifically bound” value ([1]; 100 nM peptide, subject 1) was 50%, the “specific binding” value ([1]; 100 nM peptide, subject 1) was 10.2% of total radioactivity and the “percent of inhibition of 125I-Tyr-Ala-HEXARELIN specifically bound” value ([1]; 100 nM peptide, subject 2) was 53%. For the same molecule, the “specific binding” value ([1]; 100 nM peptide, subject 2) was 11.2% of total radioactivity, the “percent of inhibition of 125I-Tyr-Ala-HEXARELIN specifically bound” value ([1]; 1000 nM peptide, subject 1) was 80% and the “specific binding” value ([1]; 1000 nM peptide, subject 1) was 4.0% of total radioactivity. The “percent of inhibition of 125I-Tyr-Ala-HEXARELIN specifically bound” value ([1]; 1000 nM peptide, subject 2) was 83%, the “specific binding” value ([1]; 1000 nM peptide, subject 2) was 4.0% of total radioactivity and the IC50 ([1]; human heart tissue, mean of subjects 1 and 2, read-out: mean IC50 value) was 59.8 nM. For the same molecule, the IC50 ([1]; human heart tissue, subject 1, read-out: IC50 value) was 62.7 nM, the IC50 ([1]; human heart tissue, subject 2, read-out: IC50 value) was 57 nM and the IC50 [2, 3] was 5.4 nM. For the same molecule, the IC50 [2, 4] was 6.2 nM, the IC50 [2, 5] was 4.5 nM and the “percent of inhibition of 125I-Tyr-Ala-HEXARELIN specifically bound” value ([2]; 0.1 nM peptide, subject 1) was 11%. For the same molecule, the “specific binding” value ([2]; 0.1 nM peptide, subject 1) was 9.1% of total radioactivity, the “percent of inhibition of 125I-Tyr-Ala-HEXARELIN specifically bound” value ([2]; 0.1 nM peptide, subject 2) was 7% and the “specific binding” value ([2]; 0.1 nM peptide, subject 2) was 10.0% of total radioactivity. For the same molecule, the “percent of inhibition of 125I-Tyr-Ala-HEXARELIN specifically bound” value ([2]; 1 nM peptide, subject 1) was 14%, the “specific binding” value ([2]; 1 nM peptide, subject 1) was 8.8% of total radioactivity and the “percent of inhibition of 125I-Tyr-Ala-HEXARELIN specifically bound” value ([2]; 1 nM peptide, subject 2) was 18%. The “specific binding” value ([2]; 1 nM peptide, subject 2) was 8.9% of total radioactivity, the “percent of inhibition of 125I-Tyr-Ala-HEXARELIN specifically bound” value ([2]; 10 nM peptide, subject 1) was 63% and the “specific binding” value ([2]; 10 nM peptide, subject 1) was 3.8% of total radioactivity. For the same molecule, the “percent of inhibition of 125I-Tyr-Ala-HEXARELIN specifically bound” value ([2]; 10 nM peptide, subject 2) was 69%, the “specific binding” value ([2]; 10 nM peptide, subject 2) was 3.3% of total radioactivity and the “percent of inhibition of 125I-Tyr-Ala-HEXARELIN specifically bound” value ([2]; 100 nM peptide, subject 1) was 79%. For the same molecule, the “specific binding” value ([2]; 100 nM peptide, subject 1) was 2.1% of total radioactivity, the “percent of inhibition of 125I-Tyr-Ala-HEXARELIN specifically bound” value ([2]; 100 nM peptide, subject 2) was 82% and the “specific binding” value ([2]; 100 nM peptide, subject 2) was 1.9% of total radioactivity. For the same molecule, the “percent of inhibition of 125I-Tyr-Ala-HEXARELIN specifically bound” value ([2]; 1000 nM peptide, subject 1) was 97%, the “specific binding” value ([2]; 1000 nM peptide, subject 1) was 0.3% of total radioactivity and the “percent of inhibition of 125I-Tyr-Ala-HEXARELIN specifically bound” value ([2]; 1000 nM peptide, subject 2) was 100%. The “specific binding” value ([2]; 1000 nM peptide, subject 2) was 0% of total radioactivity.
For `Cc1[nH]c2ccccc2c1C[C@@H](NC(=O)[C@@H](Cc1c(C)[nH]c2ccccc12)NC(=O)C(C)(C)N)C(N)=O` [Example 3, Aib--D--Mrp--D--Mrp--NH2] (HELM PEPTIDE1{[Aib].[Cc1[nH]c2ccccc2c1C[C@@H](N[*:1])C(=O)[*:2]].[Cc1[nH]c2ccccc2c1C[C@@H](N[*:1])C(=O)[*:2]].[am]}$$$$V2.0), the “percent of inhibition of 125I-Tyr-Ala-HEXARELIN specifically bound” value ([1]; 0.1 nM peptide, subject 1) was 0%, the “specific binding” value ([1]; 0.1 nM peptide, subject 1) was 25.1% of total radioactivity and the “percent of inhibition of 125I-Tyr-Ala-HEXARELIN specifically bound” value ([1]; 0.1 nM peptide, subject 2) was 0%. The “specific binding” value ([1]; 0.1 nM peptide, subject 2) was 24.5% of total radioactivity, the “percent of inhibition of 125I-Tyr-Ala-HEXARELIN specifically bound” value ([1]; 1 nM peptide, subject 1) was 1% and the “specific binding” value ([1]; 1 nM peptide, subject 1) was 24.9% of total radioactivity. For the same molecule, the “percent of inhibition of 125I-Tyr-Ala-HEXARELIN specifically bound” value ([1]; 1 nM peptide, subject 2) was 0%, the “specific binding” value ([1]; 1 nM peptide, subject 2) was 24.5% of total radioactivity and the “percent of inhibition of 125I-Tyr-Ala-HEXARELIN specifically bound” value ([1]; 10 nM peptide, subject 1) was 1%. The “specific binding” value ([1]; 10 nM peptide, subject 1) was 24.9% of total radioactivity, the “percent of inhibition of 125I-Tyr-Ala-HEXARELIN specifically bound” value ([1]; 10 nM peptide, subject 2) was 3% and the “specific binding” value ([1]; 10 nM peptide, subject 2) was 24.0% of total radioactivity. The “percent of inhibition of 125I-Tyr-Ala-HEXARELIN specifically bound” value ([1]; 100 nM peptide, subject 1) was 2%, the “specific binding” value ([1]; 100 nM peptide, subject 1) was 24.7% of total radioactivity and the “percent of inhibition of 125I-Tyr-Ala-HEXARELIN specifically bound” value ([1]; 100 nM peptide, subject 2) was 2%. For the same molecule, the “specific binding” value ([1]; 100 nM peptide, subject 2) was 24.1% of total radioactivity, the “percent of inhibition of 125I-Tyr-Ala-HEXARELIN specifically bound” value ([1]; 1000 nM peptide, subject 1) was 3% and the “specific binding” value ([1]; 1000 nM peptide, subject 1) was 24.4% of total radioactivity. The “percent of inhibition of 125I-Tyr-Ala-HEXARELIN specifically bound” value ([1]; 1000 nM peptide, subject 2) was 3%, the “specific binding” value ([1]; 1000 nM peptide, subject 2) was 24.0% of total radioactivity and the “binding to heart tissue (in words)” value ([1]; human heart tissue) was “no binding to heart tissue; also recorded: only moderate binding to heart tissue”. The IC50 value ([1]; human heart tissue, subject 1) was “inactive”, the IC50 value ([1]; human heart tissue, subject 2) was “inactive” and the “binding to hypothalamus tissue (in words)” value ([2]; human hypothalamus tissue) was “potent binding to hypothalamus tissue; also recorded: strong binding to hypothalamus tissue”. The IC50 [2, 3] was 4.8 nM, the IC50 [2, 4] was 6 nM and the IC50 [2, 5] was 3.6 nM. For the same molecule, the “percent of inhibition of 125I-Tyr-Ala-HEXARELIN specifically bound” value ([2]; 0.1 nM peptide, subject 1) was 11%, the “specific binding” value ([2]; 0.1 nM peptide, subject 1) was 9.8% of total radioactivity and the “percent of inhibition of 125I-Tyr-Ala-HEXARELIN specifically bound” value ([2]; 0.1 nM peptide, subject 2) was 13%. For the same molecule, the “specific binding” value ([2]; 0.1 nM peptide, subject 2) was 9.0% of total radioactivity, the “percent of inhibition of 125I-Tyr-Ala-HEXARELIN specifically bound” value ([2]; 1 nM peptide, subject 1) was 25% and the “specific binding” value ([2]; 1 nM peptide, subject 1) was 8.3% of total radioactivity. The “percent of inhibition of 125I-Tyr-Ala-HEXARELIN specifically bound” value ([2]; 1 nM peptide, subject 2) was 32%, the “specific binding” value ([2]; 1 nM peptide, subject 2) was 7.0% of total radioactivity and the “percent of inhibition of 125I-Tyr-Ala-HEXARELIN specifically bound” value ([2]; 10 nM peptide, subject 1) was 65%. For the same molecule, the “specific binding” value ([2]; 10 nM peptide, subject 1) was 3.9% of total radioactivity, the “percent of inhibition of 125I-Tyr-Ala-HEXARELIN specifically bound” value ([2]; 10 nM peptide, subject 2) was 75% and the “specific binding” value ([2]; 10 nM peptide, subject 2) was 3.6% of total radioactivity. For the same molecule, the “percent of inhibition of 125I-Tyr-Ala-HEXARELIN specifically bound” value ([2]; 100 nM peptide, subject 1) was 91%, the “specific binding” value ([2]; 100 nM peptide, subject 1) was 1.0% of total radioactivity and the “percent of inhibition of 125I-Tyr-Ala-HEXARELIN specifically bound” value ([2]; 100 nM peptide, subject 2) was 98%. For the same molecule, the “specific binding” value ([2]; 100 nM peptide, subject 2) was 0.2% of total radioactivity, the “percent of inhibition of 125I-Tyr-Ala-HEXARELIN specifically bound” value ([2]; 1000 nM peptide, subject 1) was 100% and the “specific binding” value ([2]; 1000 nM peptide, subject 1) was 0% of total radioactivity. The “percent of inhibition of 125I-Tyr-Ala-HEXARELIN specifically bound” value ([2]; 1000 nM peptide, subject 2) was 99% and the “specific binding” value ([2]; 1000 nM peptide, subject 2) was 0.1% of total radioactivity.
